PubChem BioAssay AID1259405, NCATS – 2018
The deposit covers about 50,000 reagents; below is a part drawn at random. In the full data, about 4,000 (8%) are marked active. 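Mouse siRNA library applied to hamster cells; one well for each siRNA.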 Reagent sequences are not shown.

- Aim: 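Mouse-designed siRNAs used to find CHO productivity engineering targets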 (primary screen)
- Cell system: Chinese hamster CHO-K1 ovary cells with stable secreted eGFP expression
- Knock-down reagent: single siRNA against mouse genes, 0.8 pmol siRNA per well (2 µl of 400 nM stock)
- Timing: 3 days
- Measurement: 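Per-well intracellular GFP measured by laser scanning cytometry, plus viability from ATP luminescence, each relative to plate median of non-targeting control wells, in %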
- Reading the numbers: GFP, % of control: higher = more GFP per well, higher productivity; viability (ATP), % of control: higher = more viable cells (more ATP)
- Hit rule: 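a knock-down is called active if GFP reaches 120% or more of non-targeting control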

| Gene | PubChem SID | GFP, % of control | viability (ATP), % of control | call |
| --- | --- | --- | --- | --- |
| Bmi1 | SID363573280 | 84.1 | 106 | inactive |
| Bmi1 | SID363588519 | 89.8 | 77.8 | inactive |
| Gas6 | SID363572689 | 94.5 | 78.8 | inactive |
| Gas6 | SID363577969 | 152 | 128 | active |
| Gas6 | SID363582193 | 82.7 | 94.4 | inactive |
| Sdhaf4 | SID363540716 | 113 | 117 | inactive |
| Sdhaf4 | SID363543167 | 79.3 | 69.1 | inactive |
| Sdhaf4 | SID363552660 | 122 | 45.2 | active |
| Khdc1a | SID363546662 | 86 | 95.2 | inactive |
| Khdc1a | SID363548418 | 39.7 | 40.2 | inactive |
| Khdc1a | SID363560596 | 81.4 | 92.6 | inactive |
| Kpna7 | SID363545612 | 62.8 | 65.7 | inactive |
| Kpna7 | SID363549125 | 107 | 83.9 | inactive |
| Kpna7 | SID363562931 | 95.2 | 58.9 | inactive |
| Pop4 | SID363570227 | 125 | 83.1 | active |
| Pop4 | SID363576563 | 56.9 | 49.6 | inactive |
| Pop4 | SID363579731 | 75.6 | 79.7 | inactive |
| Tmem222 | SID363539650 | 53.4 | 52 | inactive |
| Tmem222 | SID363560951 | 78.1 | 106 | inactive |
| Tmem222 | SID363565041 | 104 | 77.1 | inactive |
| Gpnmb | SID363540086 | 67.4 | 68.7 | inactive |
| Gpnmb | SID363561387 | 145 | 90.2 | active |
| Gpnmb | SID363564423 | 84 | 96.1 | inactive |
| Fbxo5 | SID363540034 | 61.5 | 75.3 | inactive |
| Fbxo5 | SID363561335 | 89.4 | 72.8 | inactive |
| Fbxo5 | SID363564371 | 99.8 | 84 | inactive |
| Psca | SID363555026 | 21.5 | 25.7 | inactive |
| Psca | SID363568473 | 14.5 | 24.8 | inactive |
| Psca | SID363586532 | 75.8 | 97.1 | inactive |
| Cd163 | SID363575097 | 96.7 | 84.5 | inactive |
| Cd163 | SID363580729 | 92.6 | 70.4 | inactive |
| Cd163 | SID363582841 | 127 | 92.9 | active |
| Ccna2 | SID363573459 | 83.8 | 85 | inactive |
| Ccna2 | SID363588698 | 94.4 | 93.3 | inactive |
| Ero1a | SID363573151 | 80.8 | 103 | inactive |
| Ero1a | SID363577727 | 55.5 | 70.5 | inactive |
| Ero1a | SID363581247 | 71.1 | 71.1 | inactive |
| Csl | SID363556888 | 31.1 | 22.4 | inactive |
| Csl | SID363563792 | 149 | 56.4 | active |
| Csl | SID363587338 | 62.5 | 95 | inactive |
| St8sia6 | SID363545283 | 121 | 83.6 | active |
| St8sia6 | SID363548796 | 71.9 | 81.4 | inactive |
| St8sia6 | SID363562602 | 58.4 | 63.8 | inactive |
| Mx2 | SID363572413 | 53.2 | 90 | inactive |
| Mx2 | SID363574173 | 71 | 64.6 | inactive |
| Armcx5 | SID363562059 | 71.4 | 62.3 | inactive |
| Armcx5 | SID363567197 | 96.1 | 81.1 | inactive |
| Armcx5 | SID363584554 | 61.9 | 73.9 | inactive |
| Pkd1 | SID363570234 | 120 | 101 | active |
| Pkd1 | SID363576570 | 54.6 | 83.6 | inactive |
| Pkd1 | SID363579738 | 81.6 | 71.3 | inactive |
| Zfp27 | SID363573555 | 69.5 | 99.7 | inactive |
| Zfp27 | SID363581299 | 74.5 | 86.1 | inactive |
| Zfp27 | SID363583763 | 103 | 89.6 | inactive |
| Spata31g1 | SID363543524 | 103 | 72.2 | inactive |
| Spata31g1 | SID363553017 | 47 | 84.9 | inactive |
| Spata31g1 | SID363558865 | 25 | 42.7 | inactive |
